Measured values as given in PubChem BioAssay AID330 (DTP/NCI, 2004).
The list is a part of this screen's results and no random one: it is rich in T/C values a quarter to a half above the control, in often repeated tests (any T/C) and in doses without a T/C. Further doses and runs are listed elsewhere. T/C: endpoint of the treated group in % of that of the vehicle group. Some entries give survivors of the animals treated and no T/C: the source files T/C as zero there, which appears to mark a toxic dose or a test without result, not a measured value. Some doses without a T/C left all or most animals alive at the check, yet need not have been tolerated: the source hardly ever lists a survival T/C far under the control, and the zero likely stands for such cases as well. Counts of survivors are from the toxicity check (mostly the fifth day) where no day follows; animals may have died later. Schedules are NCI's codes, taken here to give the interval after Q, in days (D) or hours (H), and the number of doses after X. Some entries were tested several times; the values are given in rising order. Where survival is the endpoint, this PubChem deposit counts one and a half times the control or more as active, and values a quarter to a half above the control carry no call in these data; other NCI protocols may use other cut-offs. Some T/C values are followed by the survivors on the day toxicity was checked, most often the fifth; where none is given, no animal had died by that day.

Test system: P388 leukemia ip, CD2F1 mice, survival T/C
Experiment: NCI In Vivo Anticancer Drug Screen. Data for tumor model P388 Leukemia (intraperitoneal) in CD2F1 (CDF1) mice
Conditions: T/C endpoint: median survival time, higher T/C = longer survival
[1] = dose: 12.5 mg/kg/injection, schedule: Q01DX009 (ip), vehicle: saline with Tween-80
[2] = dose: 25.0 mg/kg/injection, schedule: Q01DX009 (ip), vehicle: saline with Tween-80
[3] = dose: 50.0 mg/kg/injection, schedule: Q01DX009 (ip), vehicle: saline with Tween-80
[4] = dose: 100.0 mg/kg/injection, schedule: Q01DX009 (ip), vehicle: saline with Tween-80
[5] = dose: 200.0 mg/kg/injection, schedule: Q01DX009 (ip), vehicle: saline with Tween-80
[6] = dose: 50.0 mg/kg/injection, schedule: Q01DX009 (ip), vehicle: saline
[7] = dose: 200.0 mg/kg/injection, schedule: Q01DX009 (ip), vehicle: saline
[8] = dose: 100.0 mg/kg/injection, schedule: Q01DX005 (ip), vehicle: saline with Tween-80
[9] = dose: 200.0 mg/kg/injection, schedule: Q01DX005 (ip), vehicle: saline with Tween-80
[10] = dose: 100.0 mg/kg/injection, schedule: Q01DX009 (ip), vehicle: saline
[11] = dose: 25.0 mg/kg/injection, schedule: Q01DX009 (ip), vehicle: saline

For `C=C/C(C)=C/[C@H](C)C(=O)C[C@H](O)CC1CC(=O)NC(=O)C1`, the T/C [1] was 128 % of control, the T/C [2] was 148 % of control and the T/C (dose: 37.5 mg/kg/injection, schedule: Q01DX009 (ip), vehicle: saline) was 133 % of control. The survivor count [3] was 3 of 6, the T/C (dose: 50.0 mg/kg/injection, schedule: Q04DX003 (ip), vehicle: saline with Tween-80) was 128 % of control and the T/C (dose: 75.0 mg/kg/injection, schedule: Q04DX003 (ip), vehicle: saline with Tween-80) was 141 % of control. For the same compound, the survivor count [4] was 2 of 6, the T/C (dose: 100.0 mg/kg/injection, schedule: Q04DX003 (ip), vehicle: saline with Tween-80) was 132 % of control and the T/C (dose: 150.0 mg/kg/injection, schedule: Q04DX003 (ip), vehicle: saline with Tween-80) was 141 % of control.
With `O=[N+]([O-])c1cc(S(=O)(=O)NCc2ccco2)ccc1N/N=C/c1ccccn1` the survivor count (dose: 6.25 mg/kg/injection, schedule: Q01DX009 (ip), vehicle: saline with Tween-80) was 6 of 6, the survivor count [1] was 6 of 6 and the survivor count [2] was 6 of 6. For the same compound, the survivor count [3] was 5 of 6 and the survivor count [4] was 6 of 6.
With `COc1ccc(/C(=C(\c2ccccc2)[N+](=O)[O-])c2ccc(OCCN3CCCC3)cc2)cc1` the survivor count [4] was 2 of 6 and the survivor count [5] was 0 of 6.
For `Nc1nc2ccc(Br)cc2s1`, the survivor count [6] was 6 of 6, the survivor count [7] was 6 of 6 and the survivor count (dose: 200.0 mg/kg/injection, schedule: Q01DX009 (ip), vehicle: suspension in saline) was 6 of 6.
`NC(=S)N/N=C/C1=C(Cl)c2ccccc2C1` was tested, and the survivor count (dose: 25.0 mg/kg/injection, schedule: Q01DX005 (ip), vehicle: saline with Tween-80) was 0 of 6, the survivor count (dose: 50.0 mg/kg/injection, schedule: Q01DX005 (ip), vehicle: saline with Tween-80) was 0 of 6 and the survivor count [8] was 0 of 6. For the same compound, the survivor count [9] was 0 of 6.
For `CCC1CN2C(=N1)c1ccccc1-c1cc(Cl)ccc12` (centres undefined), the T/C (dose: 20.0 mg/kg/injection, schedule: Q01DX009 (ip), vehicle: saline) was 132 % of control, the T/C (dose: 40.0 mg/kg/injection, schedule: Q01DX009 (ip), vehicle: saline) was 148 % of control and the survivor count (dose: 80.0 mg/kg/injection, schedule: Q01DX009 (ip), vehicle: saline) was 0 of 6 and 2 of 6. The survivor count (dose: 160.0 mg/kg/injection, schedule: Q01DX009 (ip), vehicle: saline) was 0 of 6.
With `C=C(CC(=O)Nc1nc(C)c(C(=O)OC)s1)C(=O)O` the survivor count [10] was 6 of 6.
For `[CH3][Sn]([CH3])([N](c1ccccn1)c1ccccn1)[N](c1ccccn1)c1ccccn1`, the survivor count (dose: 200.0 mg/kg/injection, schedule: Q01DX005 (ip), vehicle: Klucel (hydroxypropylcellulose) (HPC)) was 2 of 6.
`CCC/C=C/C=C/C(=O)OC1C(C)C2(O)C3C=C(C)C(=O)C3CC(COC(C)=O)=CC2C2C(C)(C)C12OC(=O)C(C)C` (centres undefined) was tested, and the T/C (dose: 4.0 mg/kg/injection, schedule: Q01DX005 (ip), vehicle: distilled water + Tween-80) was 138 and 143 % of control, the survivor count (dose: 8.0 mg/kg/injection, schedule: Q01DX005 (ip), vehicle: distilled water + Tween-80) was 0 of 5 and 3 of 5 and the survivor count (dose: 8.0 mg/kg/injection, schedule: Q01DX005 (ip), vehicle: saline + alcohol) was 0 of 5.
In the case of `O=C(O)C[n+]1ccccc1`, the survivor count [11] is reported as 6 of 6.
For `C1CN2CCN3CCCN(CCN(C1)C2)C3`, the survivor count (dose: 50.0 mg/kg/injection, schedule: Q01DX005 (ip), vehicle: saline) was 1 of 6, the survivor count [8] was 0 of 6 and the survivor count [9] was 0 of 6.
`C=C1C(=O)C23OC2C1CCC(=O)C1(C)CC[C@H](OC(C)=O)C(C)(C)[C@H]1CC3O` (some centres undefined) was tested, and the survivor count (dose: 80.0 mg/kg/injection, schedule: Q01DX005 (ip), vehicle: Klucel (hydroxypropylcellulose) (HPC)) was 0 of 6 and the survivor count (dose: 160.0 mg/kg/injection, schedule: Q01DX005 (ip), vehicle: Klucel (hydroxypropylcellulose) (HPC)) was 0 of 6.
In the case of `N#CC1=CNc2ccccc2N=C1N`, the survivor count [9] is reported as 0 of 5.
`NC(CS)=NCC1C2CC3CC(C2)CC1C3` (centres undefined) was tested, and the survivor count (dose: 6.25 mg/kg/injection, schedule: Q01DX009 (ip), vehicle: Klucel (hydroxypropylcellulose) (HPC)) was 6 of 6, the survivor count (dose: 12.5 mg/kg/injection, schedule: Q01DX009 (ip), vehicle: Klucel (hydroxypropylcellulose) (HPC)) was 2 of 6 and 4 of 6 and the survivor count (dose: 25.0 mg/kg/injection, schedule: Q01DX009 (ip), vehicle: Klucel (hydroxypropylcellulose) (HPC)) was 2 of 6. The survivor count (dose: 50.0 mg/kg/injection, schedule: Q01DX009 (ip), vehicle: Klucel (hydroxypropylcellulose) (HPC)) was 0 of 6.
With `OC1CC2c3ccccc3C1C1CCCCN21` (centres undefined) the survivor count (dose: 100.0 mg/kg/injection, schedule: Q04DX002 (ip), vehicle: saline) was 2 of 5, the survivor count (dose: 200.0 mg/kg/injection, schedule: Q04DX002 (ip), vehicle: saline) was 0 of 5 and the survivor count (dose: 400.0 mg/kg/injection, schedule: Q04DX002 (ip), vehicle: saline) was 0 of 5.
In the case of `CC1=C2C(=C[C@@](C)(CO)[C@@H]2O)C(=O)[C@](C)(O)C12CC2`, the T/C (dose: 0.2 mg/kg/injection, schedule: Q01DX010 (ip), vehicle: saline, evaluated on day 30) is reported as 127 % of control, the T/C (dose: 0.2 mg/kg/injection, schedule: Q01DX010 (ip), vehicle: saline, run until all animals had died) is reported as 135 % of control and the survivor count (dose: 0.4 mg/kg/injection, schedule: Q01DX010 (ip), vehicle: saline) is reported as 4 of 6. The survivor count (dose: 1.6 mg/kg/injection, schedule: Q01DX010 (ip), vehicle: saline) was 3 of 6.
`CN(C)CCCN=c1c2ccccc2n(C)c2[nH]c(=O)n(C)c(=O)c12` was tested, and the T/C (dose: 30.0 mg/kg/injection, schedule: Q01DX005 (ip), vehicle: saline) was 132 % of control, the T/C (dose: 60.0 mg/kg/injection, schedule: Q01DX005 (ip), vehicle: saline) was 127 % of control and the survivor count (dose: 120.0 mg/kg/injection, schedule: Q01DX005 (ip), vehicle: saline) was 5 of 6. For the same compound, the survivor count (dose: 240.0 mg/kg/injection, schedule: Q01DX005 (ip), vehicle: saline) was 3 of 6.
In the case of `CC(C)(C)NC(C1=CC(C)(C)c2ccccc2C1=O)c1ccccc1` (centres undefined), the T/C (dose: 100.0 mg/kg/injection, schedule: Q01DX009 (ip), vehicle: Klucel + Tween-80) is reported as 126 % of control, the survivor count (dose: 200.0 mg/kg/injection, schedule: Q01DX009 (ip), vehicle: Klucel + Tween-80) is reported as 4 of 6 and the survivor count (dose: 400.0 mg/kg/injection, schedule: Q01DX009 (ip), vehicle: Klucel + Tween-80) is reported as 0 of 6. The survivor count (dose: 600.0 mg/kg/injection, schedule: Q01DX009 (ip), vehicle: Klucel + Tween-80) was 0 of 4.
For `CCCCCCCOCC(=O)O`, the survivor count [5] was 1 of 6.
In the case of `O=[N+]([O-])c1ccc(C=C2C(Cl)=C(Cl)C(Cl)=C2Cl)cc1`, the survivor count [2] is reported as 3 of 6.
For `C/C(=N\NC(=O)c1ccccc1O)c1cccc(/C(C)=N/NC(=O)c2ccccc2O)n1`, the T/C (dose: 6.25 mg/kg/injection, schedule: Q01DX009 (ip), vehicle: saline) was 134 % of control, the T/C (dose: 12.5 mg/kg/injection, schedule: Q01DX009 (ip), vehicle: saline) was 125 and 127 % of control [5 of 6 alive] and the T/C [11] was 129 and 132 % of control. The survivor count [6] was 6 of 6, the survivor count [10] was 6 of 6 and the survivor count [7] was 5 of 6.
With `COc1ccc(C(=O)OC2(C)CC(C)(C)N=[N+]2[O-])cc1` (centres undefined) the T/C (dose: 100.0 mg/kg/injection, schedule: Q01DX009 (ip), vehicle: other) was 125 % of control.
In the case of `O=S1(=O)N=C([O-])c2ccc(C[N+]3(CCCl)CCN(CCCl)CC3)cc21`, the survivor count (dose: 50.0 mg/kg/injection, schedule: Q01DX009 (ip), vehicle: DMSO) is reported as 6 of 6 and the survivor count (dose: 200.0 mg/kg/injection, schedule: Q01DX009 (ip), vehicle: DMSO) is reported as 0 of 6.
